Source: the supplement of paper PMC10849652
The list shows a part of the results.

The chains behind the UniProt entries cited, without tags or fusion partners. Where a name states a change or a piece, a line headed by the entry shows the natural chain unless it says otherwise.
UniProt Q9H6S0: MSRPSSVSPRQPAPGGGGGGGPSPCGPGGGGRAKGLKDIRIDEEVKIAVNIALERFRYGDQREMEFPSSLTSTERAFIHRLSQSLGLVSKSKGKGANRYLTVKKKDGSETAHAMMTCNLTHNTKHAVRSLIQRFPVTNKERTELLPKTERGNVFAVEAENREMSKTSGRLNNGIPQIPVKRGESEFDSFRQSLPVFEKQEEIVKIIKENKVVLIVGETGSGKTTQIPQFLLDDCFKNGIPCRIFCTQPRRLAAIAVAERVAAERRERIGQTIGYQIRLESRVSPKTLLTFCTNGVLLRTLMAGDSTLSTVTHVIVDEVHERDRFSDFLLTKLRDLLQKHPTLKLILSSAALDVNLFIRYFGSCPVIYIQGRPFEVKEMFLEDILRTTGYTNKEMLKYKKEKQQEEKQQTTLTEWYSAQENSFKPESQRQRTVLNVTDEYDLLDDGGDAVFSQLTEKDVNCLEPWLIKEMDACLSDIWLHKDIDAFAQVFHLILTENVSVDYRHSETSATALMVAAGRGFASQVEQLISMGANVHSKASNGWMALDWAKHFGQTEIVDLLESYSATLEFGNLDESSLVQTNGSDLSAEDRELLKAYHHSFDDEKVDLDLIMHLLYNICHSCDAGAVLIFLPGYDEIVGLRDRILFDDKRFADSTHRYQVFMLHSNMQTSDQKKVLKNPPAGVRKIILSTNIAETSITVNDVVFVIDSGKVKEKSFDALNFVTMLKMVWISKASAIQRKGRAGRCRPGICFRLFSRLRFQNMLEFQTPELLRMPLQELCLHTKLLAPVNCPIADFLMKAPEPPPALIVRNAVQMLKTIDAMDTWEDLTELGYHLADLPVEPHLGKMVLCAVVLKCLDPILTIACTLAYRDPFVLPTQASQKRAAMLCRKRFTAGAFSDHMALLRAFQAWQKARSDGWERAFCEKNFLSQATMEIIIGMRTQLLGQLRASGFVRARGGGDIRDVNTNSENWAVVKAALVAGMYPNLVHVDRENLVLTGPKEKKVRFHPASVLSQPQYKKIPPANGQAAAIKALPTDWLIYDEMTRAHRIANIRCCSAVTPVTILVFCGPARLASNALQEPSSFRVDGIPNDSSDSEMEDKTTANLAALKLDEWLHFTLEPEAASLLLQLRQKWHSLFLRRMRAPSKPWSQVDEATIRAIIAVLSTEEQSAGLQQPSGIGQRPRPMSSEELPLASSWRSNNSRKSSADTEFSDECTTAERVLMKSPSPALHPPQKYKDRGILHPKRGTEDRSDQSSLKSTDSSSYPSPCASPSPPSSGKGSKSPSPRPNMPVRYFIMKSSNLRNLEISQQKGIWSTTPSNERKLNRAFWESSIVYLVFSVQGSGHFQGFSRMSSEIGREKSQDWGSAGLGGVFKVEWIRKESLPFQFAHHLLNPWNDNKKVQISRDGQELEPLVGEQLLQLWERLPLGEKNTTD
UniProt Q9NYG2: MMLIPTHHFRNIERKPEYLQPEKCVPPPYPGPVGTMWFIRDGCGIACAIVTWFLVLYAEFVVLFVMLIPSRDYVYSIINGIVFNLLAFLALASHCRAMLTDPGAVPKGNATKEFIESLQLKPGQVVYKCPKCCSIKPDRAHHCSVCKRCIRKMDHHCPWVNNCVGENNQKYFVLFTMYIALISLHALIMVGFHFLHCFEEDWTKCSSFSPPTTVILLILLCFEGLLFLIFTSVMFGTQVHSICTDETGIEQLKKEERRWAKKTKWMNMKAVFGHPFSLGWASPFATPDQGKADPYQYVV
UniProt O95405: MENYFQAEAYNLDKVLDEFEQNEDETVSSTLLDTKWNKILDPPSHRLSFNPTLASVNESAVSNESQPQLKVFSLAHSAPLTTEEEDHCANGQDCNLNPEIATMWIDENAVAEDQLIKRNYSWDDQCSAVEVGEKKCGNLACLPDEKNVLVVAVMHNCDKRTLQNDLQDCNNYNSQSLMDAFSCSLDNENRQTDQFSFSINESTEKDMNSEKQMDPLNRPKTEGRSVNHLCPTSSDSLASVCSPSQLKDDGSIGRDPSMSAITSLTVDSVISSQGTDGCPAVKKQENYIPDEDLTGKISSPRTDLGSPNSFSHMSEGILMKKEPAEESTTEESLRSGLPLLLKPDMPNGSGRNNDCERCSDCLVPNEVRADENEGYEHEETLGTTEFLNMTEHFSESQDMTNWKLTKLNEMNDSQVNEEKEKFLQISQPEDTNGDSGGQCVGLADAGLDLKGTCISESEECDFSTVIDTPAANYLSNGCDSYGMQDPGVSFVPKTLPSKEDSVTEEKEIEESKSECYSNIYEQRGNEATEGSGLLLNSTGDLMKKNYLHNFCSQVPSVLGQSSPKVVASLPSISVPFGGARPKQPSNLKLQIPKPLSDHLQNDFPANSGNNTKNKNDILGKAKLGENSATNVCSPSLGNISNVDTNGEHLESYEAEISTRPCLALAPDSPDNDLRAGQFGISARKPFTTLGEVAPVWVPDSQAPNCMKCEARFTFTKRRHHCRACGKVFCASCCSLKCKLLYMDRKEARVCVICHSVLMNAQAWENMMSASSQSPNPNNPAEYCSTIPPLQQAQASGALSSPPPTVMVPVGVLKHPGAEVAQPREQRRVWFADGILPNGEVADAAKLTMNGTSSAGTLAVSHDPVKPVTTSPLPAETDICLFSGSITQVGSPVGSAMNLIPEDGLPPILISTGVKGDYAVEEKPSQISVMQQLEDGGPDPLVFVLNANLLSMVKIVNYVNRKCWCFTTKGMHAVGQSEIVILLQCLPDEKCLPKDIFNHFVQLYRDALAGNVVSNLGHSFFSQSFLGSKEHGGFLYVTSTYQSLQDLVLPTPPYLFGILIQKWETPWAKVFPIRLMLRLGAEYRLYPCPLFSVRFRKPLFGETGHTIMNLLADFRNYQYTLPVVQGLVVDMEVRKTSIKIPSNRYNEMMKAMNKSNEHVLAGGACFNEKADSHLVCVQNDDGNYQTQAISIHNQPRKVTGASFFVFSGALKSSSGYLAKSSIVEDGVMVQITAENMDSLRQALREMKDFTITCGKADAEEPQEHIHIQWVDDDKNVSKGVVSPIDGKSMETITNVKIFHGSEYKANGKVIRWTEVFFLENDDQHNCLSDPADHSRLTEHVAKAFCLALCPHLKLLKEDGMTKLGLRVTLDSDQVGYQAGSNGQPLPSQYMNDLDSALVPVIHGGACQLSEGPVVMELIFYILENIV
UniProt Q7Z7L7: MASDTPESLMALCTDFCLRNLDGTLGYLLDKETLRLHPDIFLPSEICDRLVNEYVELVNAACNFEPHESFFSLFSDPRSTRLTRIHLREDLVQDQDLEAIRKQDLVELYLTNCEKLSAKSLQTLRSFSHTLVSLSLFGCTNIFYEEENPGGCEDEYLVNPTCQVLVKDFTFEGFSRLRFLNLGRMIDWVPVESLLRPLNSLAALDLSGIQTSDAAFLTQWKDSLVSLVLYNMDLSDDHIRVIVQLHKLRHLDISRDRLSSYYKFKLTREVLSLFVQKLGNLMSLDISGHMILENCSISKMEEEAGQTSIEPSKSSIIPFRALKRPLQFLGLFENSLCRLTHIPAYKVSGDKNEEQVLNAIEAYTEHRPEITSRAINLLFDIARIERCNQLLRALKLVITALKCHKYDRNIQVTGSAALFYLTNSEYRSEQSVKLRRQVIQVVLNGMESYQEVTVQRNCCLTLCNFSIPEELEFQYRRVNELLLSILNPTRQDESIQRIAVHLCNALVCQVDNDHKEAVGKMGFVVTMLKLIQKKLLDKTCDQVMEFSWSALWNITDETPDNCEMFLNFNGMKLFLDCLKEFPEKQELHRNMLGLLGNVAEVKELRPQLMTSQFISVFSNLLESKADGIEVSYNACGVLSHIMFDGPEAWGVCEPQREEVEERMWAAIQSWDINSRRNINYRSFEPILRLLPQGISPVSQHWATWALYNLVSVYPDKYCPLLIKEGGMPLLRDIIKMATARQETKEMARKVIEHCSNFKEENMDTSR
UniProt O15498: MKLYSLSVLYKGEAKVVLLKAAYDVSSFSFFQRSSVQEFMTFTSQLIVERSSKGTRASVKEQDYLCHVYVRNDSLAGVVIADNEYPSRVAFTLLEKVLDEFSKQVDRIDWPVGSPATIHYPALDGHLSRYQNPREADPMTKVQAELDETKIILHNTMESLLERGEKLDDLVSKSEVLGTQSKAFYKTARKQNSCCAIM
UniProt Q9NUE0: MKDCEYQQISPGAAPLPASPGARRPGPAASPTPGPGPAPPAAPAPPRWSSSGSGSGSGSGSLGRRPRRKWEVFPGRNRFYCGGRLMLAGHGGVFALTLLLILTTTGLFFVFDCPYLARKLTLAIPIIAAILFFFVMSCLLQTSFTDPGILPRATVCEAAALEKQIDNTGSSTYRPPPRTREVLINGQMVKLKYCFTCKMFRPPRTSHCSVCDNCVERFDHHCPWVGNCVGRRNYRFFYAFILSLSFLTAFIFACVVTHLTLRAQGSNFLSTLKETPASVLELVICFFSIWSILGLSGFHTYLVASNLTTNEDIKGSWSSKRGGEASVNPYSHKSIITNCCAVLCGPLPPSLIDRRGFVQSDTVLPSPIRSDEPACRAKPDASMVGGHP
UniProt Q9UGR2: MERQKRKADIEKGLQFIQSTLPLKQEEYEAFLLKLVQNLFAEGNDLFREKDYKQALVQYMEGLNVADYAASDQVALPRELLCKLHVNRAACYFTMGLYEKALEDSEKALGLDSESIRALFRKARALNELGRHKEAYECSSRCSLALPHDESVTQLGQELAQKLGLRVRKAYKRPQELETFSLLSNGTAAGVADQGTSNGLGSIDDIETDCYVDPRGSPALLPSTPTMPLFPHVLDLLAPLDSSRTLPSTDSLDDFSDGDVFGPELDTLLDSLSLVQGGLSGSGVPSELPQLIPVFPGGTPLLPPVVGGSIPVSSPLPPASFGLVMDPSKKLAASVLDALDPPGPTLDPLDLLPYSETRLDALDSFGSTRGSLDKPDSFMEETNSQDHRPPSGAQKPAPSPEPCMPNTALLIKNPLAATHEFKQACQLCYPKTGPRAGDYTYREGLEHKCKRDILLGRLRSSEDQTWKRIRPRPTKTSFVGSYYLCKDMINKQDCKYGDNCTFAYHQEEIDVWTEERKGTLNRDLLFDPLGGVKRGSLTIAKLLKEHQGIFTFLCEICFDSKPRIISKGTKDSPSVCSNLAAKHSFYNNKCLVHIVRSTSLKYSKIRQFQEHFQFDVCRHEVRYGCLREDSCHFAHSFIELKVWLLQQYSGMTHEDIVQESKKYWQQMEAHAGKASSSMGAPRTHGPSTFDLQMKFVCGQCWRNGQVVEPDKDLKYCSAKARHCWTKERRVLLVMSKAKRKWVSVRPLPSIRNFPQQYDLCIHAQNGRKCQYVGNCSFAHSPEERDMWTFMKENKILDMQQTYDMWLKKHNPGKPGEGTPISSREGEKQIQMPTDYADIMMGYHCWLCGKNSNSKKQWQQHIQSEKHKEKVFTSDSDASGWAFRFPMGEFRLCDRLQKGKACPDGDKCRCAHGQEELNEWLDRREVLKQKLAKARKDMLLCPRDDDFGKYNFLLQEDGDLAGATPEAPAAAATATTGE
UniProt Q7Z2W4: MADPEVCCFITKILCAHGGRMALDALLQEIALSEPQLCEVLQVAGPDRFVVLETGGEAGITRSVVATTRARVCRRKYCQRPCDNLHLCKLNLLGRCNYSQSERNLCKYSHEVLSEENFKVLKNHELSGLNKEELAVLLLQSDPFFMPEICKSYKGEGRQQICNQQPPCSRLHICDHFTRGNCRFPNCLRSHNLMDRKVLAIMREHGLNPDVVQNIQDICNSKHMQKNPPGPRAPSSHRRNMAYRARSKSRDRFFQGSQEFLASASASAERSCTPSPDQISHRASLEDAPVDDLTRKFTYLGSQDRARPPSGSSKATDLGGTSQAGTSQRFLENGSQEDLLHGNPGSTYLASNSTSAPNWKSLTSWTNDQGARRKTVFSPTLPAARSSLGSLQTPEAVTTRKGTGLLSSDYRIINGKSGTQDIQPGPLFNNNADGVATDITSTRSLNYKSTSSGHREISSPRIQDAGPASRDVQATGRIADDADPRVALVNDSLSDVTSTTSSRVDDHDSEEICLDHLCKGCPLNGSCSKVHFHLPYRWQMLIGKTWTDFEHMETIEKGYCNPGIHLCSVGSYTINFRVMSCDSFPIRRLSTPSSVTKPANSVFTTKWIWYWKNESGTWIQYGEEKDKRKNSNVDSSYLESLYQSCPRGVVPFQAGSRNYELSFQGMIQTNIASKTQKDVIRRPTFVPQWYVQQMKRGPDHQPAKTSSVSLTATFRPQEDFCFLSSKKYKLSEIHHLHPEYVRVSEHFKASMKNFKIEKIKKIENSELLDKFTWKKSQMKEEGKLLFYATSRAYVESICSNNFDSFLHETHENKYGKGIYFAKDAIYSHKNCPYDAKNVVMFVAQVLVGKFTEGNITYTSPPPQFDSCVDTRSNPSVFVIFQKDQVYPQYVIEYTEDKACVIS

Tests used:
Assay in all cases: log2 fold change, soluble protein after heating vs DMSO (PISA); higher = thermal stabilisation; K562 lysate, 10 uM; active = over 0.2 and 3.5 SD of the protein, either way, in both replicates (recomputed)
[1] = compound: CN1CC[C@H](c2c(O)cc(O)c3c(=O)cc(-c4ccccc4Cl)oc23)[C@H](O)C1 [alvocidib]
How it was run: (§1)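 Pellets of K562 cells were dounce-homogenised in PBS pH 7.4 with 1 mM MgCl2, and the crude extract was held at 1 mg/mL protein for a 30 min treatment with 10 μM compound. Aliquots were heated for 3 min over 48°C-58°C and pooled before NP-40 was added to 0.5% at 4°C. The supernatant from 21,000xg for 90 min was quantified by TMTpro 16plex LC-MS/MS with channel sums equalised. Values are reported from duplicates as log-two fold change in thermal stability relative to solvent controls.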

[2] = compound: CN1CCc2c(c3ccccc3n2Cc2ccc(C(=O)NO)cc2)C1 [Tubastatin A]
How it was run: as §1

[3] = compound: CNC(=O)C1=CC=CC=C1NC2=NC(=NC=C2Cl)NC3=C(C=C(C=C3)N4CCOCC4)OC
How it was run: as §1

[4] = compound: CNC(=O)c1ccc(Nc2ncc(C(F)(F)F)c(NCc3nccnc3N(C)S(C)(=O)=O)n2)cc1 [defactinib]
How it was run: as §1

[5] = compound: CNc1nc(-c2ccc3c(N)n[nH]c3c2)cc(N2C[C@@H](C(=O)NC3CCCCC3)CC[C@H]2C)n1
How it was run: as §1

[6] = compound: COC(=O)N[C@@H](C)CNc1nccc(-c2cn(C(C)C)nc2-c2cc(Cl)cc(NS(C)(=O)=O)c2F)n1 [encorafenib]
How it was run: as §1

[7] = compound: COC(=O)[C@H](CCSC)NC(=O)C1=C(C=C(C=C1)NC[C@H](CS)N)C2=CC=CC=C2
How it was run: as §1

[8] = compound: COc1cc(Nc2ncc3c(n2)-c2ccc(Cl)cc2C(c2c(F)cccc2OC)=NC3)ccc1C(=O)O [alisertib]
How it was run: as §1

[9] = compound: COc1cc2nc(-c3cc(F)ccc3O)nc(N[C@@H]3CNC[C@H]3C(C)(C)O)c2cc1OC
How it was run: as §1

[10] = compound: COc1cc2ncnc(Nc3ccc(F)c(Cl)c3)c2cc1OCCCN1CCOCC1 [gefitinib]
How it was run: as §1

Measured: log2 fold change

XRN2 (UniProt Q9H0D6)
inactive: [1] -0.01 | [2] -0.009 | [3] 0.002 | [4] 0.027 | [5] 0.005 | [6] 0.027 | [7] 0.046 | [8] -0.004 | [9] -0.041 | [10] 0.031

YIF1B (UniProt Q5BJH7)
inactive: [1] 0.003 | [2] 0.156 | [3] -0.015 | [4] 0.013 | [5] 0.029 | [6] 0.052 | [7] -0.023 | [8] 0.054 | [9] 0.033 | [10] -0.002

XRCC6 (UniProt P12956)
inactive: [1] 0.003 | [2] 0.034 | [3] -0.014 | [4] -0.023 | [5] 0.006 | [6] -0.006 | [7] 0.011 | [8] 0.015 | [9] -0.007 | [10] 0.013

YTHDC2 (UniProt Q9H6S0)
inactive: [1] 0.05 | [2] -0.084 | [3] 0.038 | [4] 0.048 | [5] -0.008 | [6] 0.04 | [7] 0.05 | [8] -0.026 | [9] -0.029 | [10] -0.004

XRN1 (UniProt Q8IZH2)
inactive: [1] 0.026 | [2] 0.009 | [3] -0.017 | [4] 0.086 | [5] -0.008 | [6] 0.023 | [7] 0.064 | [8] -0.006 | [9] 0.064 | [10] -0.017

XPO6 (UniProt Q96QU8)
inactive: [1] -0.058 | [2] -0.09 | [3] -0.048 | [4] -0.025 | [5] -0.05 | [6] -0.006 | [7] 0.021 | [8] 0.036 | [9] 0.031 | [10] 0.067

ZDHHC9 (UniProt Q9Y397)
inactive: [1] -0.092 | [2] 0.11 | [3] 0.083

YWHAE (UniProt P62258)
inactive: [1] 0.004 | [2] 0.03 | [3] -0.023 | [4] -0.012 | [5] -0.019 | [6] 0.001 | [7] -0.026 | [8] 0 | [9] 0 | [10] 0.008

XXYLT1 (UniProt Q8NBI6)
inactive: [1] -0.002 | [2] 0.065 | [3] 0.042 | [4] 0.023 | [5] -0.026 | [6] 0.122 | [7] 0.043 | [8] 0.014 | [9] -0.008 | [10] 0.056

ZC3H15 (UniProt Q8WU90)
inactive: [1] -0.036 | [2] 0.014 | [3] -0.005 | [4] 0.01 | [5] 0.04 | [6] -0.002 | [7] -0.057 | [8] -0.008 | [9] -0.003 | [10] -0.011

ZBED1 (UniProt O96006)
inactive: [1] 0.013 | [2] -0.129 | [3] 0.042 | [4] -0.039 | [5] 0.062 | [6] 0.048 | [7] -0.04 | [8] -0.014 | [9] -0.043 | [10] -0.014

ZC3H18 (UniProt E7ERS3)
inactive: [1] -0.004 | [2] -0.083 | [3] 0.017 | [4] 0.013 | [5] 0.001 | [6] 0.076 | [7] -0.022 | [8] 0 | [9] -0.017 | [10] -0.017

ZDHHC3 isoform 2 (UniProt Q9NYG2)
inactive: [1] 0.004 | [2] -0.015 | [3] -0.037 | [4] 0.063 | [5] -0.079 | [6] 0.066 | [7] -0.058 | [8] -0.021 | [9] -0.051 | [10] -0.031

ZC3H4 (UniProt Q9UPT8)
inactive: [1] -0.04 | [2] -0.035 | [3] 0.004 | [4] 0.012 | [5] 0.049 | [6] 0.076 | [7] 0.033 | [8] -0.066 | [9] -0.011 | [10] -0.009

ZFC3H1 (UniProt O60293)
inactive: [1] -0.031 | [2] 0.015 | [3] 0.076 | [4] -0.029 | [5] 0.057 | [6] -0.012 | [7] 0.038 | [8] 0.001 | [9] -0.019 | [10] 0.037

XRCC5 (UniProt P13010)
inactive: [1] 0.016 | [2] -0.066 | [3] -0.02 | [4] 0.004 | [5] -0.021 | [6] 0.002 | [7] 0.076 | [8] 0.005 | [9] -0.006 | [10] -0.006

XYLB (UniProt O75191)
inactive: [1] 0.139 | [2] 0.043 | [3] -0.012 | [4] -0.066 | [5] 0.038 | [6] 0.161 | [7] 0.001 | [8] -0.146 | [9] 0.014 | [10] -0.069

YBX1 (UniProt P67809)
inactive: [1] 0.069 | [2] 0.06 | [3] -0.022 | [4] 0.001 | [5] 0.017 | [6] -0.022 | [7] -0.031 | [8] -0.004 | [9] 0.012 | [10] -0.009

ZFPM1 (UniProt Q8IX07)
inactive: [1] 0.014 | [2] 0.024 | [3] -0.022 | [4] 0 | [5] 0.007 | [6] 0.072 | [7] -0.009 | [8] -0.011 | [9] 0.018 | [10] -0.006

ZFYVE9 (UniProt O95405)
inactive: [1] -0.039 | [2] 0.01 | [3] 0.028 | [4] -0.059 | [5] -0.043 | [6] 0.034 | [7] 0.114 | [8] 0.007 | [9] -0.004 | [10] 0.09

YIPF5 isoform 3 (UniProt Q969M3)
inactive: [1] -0.02 | [2] 0.048 | [3] 0.051 | [4] 0.042 | [5] 0.037 | [6] 0.064 | [7] -0.04 | [8] -0.124 | [9] 0.057 | [10] 0.036

YWHAB (UniProt P31946)
inactive: [1] 0.007 | [2] 0.02 | [3] 0.005 | [4] -0.024 | [5] -0.01 | [6] -0.005 | [7] -0.044 | [8] 0.068 | [9] 0.001 | [10] -0.032

ZER1 (UniProt Q7Z7L7)
inactive: [1] -0.073 | [2] -0.085 | [3] 0.037 | [4] 0.125 | [5] 0.037 | [6] 0.033 | [7] -0.178 | [8] 0.067 | [9] -0.044 | [10] -0.059

YBX3 (UniProt P16989)
inactive: [1] 0.018 | [2] 0.046 | [3] -0.003 | [4] -0.015 | [5] -0.009 | [6] -0.025 | [7] -0.035 | [8] 0.01 | [9] 0.005 | [10] 0

Eight successive records out of the list so far:
XYLB (UniProt O75191)
inactive: [1] 0.139 | [2] 0.043 | [3] -0.012 | [4] -0.066 | [5] 0.038 | [6] 0.161 | [7] 0.001 | [8] -0.146 | [9] 0.014 | [10] -0.069

YBX1 (UniProt P67809)
inactive: [1] 0.069 | [2] 0.06 | [3] -0.022 | [4] 0.001 | [5] 0.017 | [6] -0.022 | [7] -0.031 | [8] -0.004 | [9] 0.012 | [10] -0.009

ZFPM1 (UniProt Q8IX07)
inactive: [1] 0.014 | [2] 0.024 | [3] -0.022 | [4] 0 | [5] 0.007 | [6] 0.072 | [7] -0.009 | [8] -0.011 | [9] 0.018 | [10] -0.006

ZFYVE9 (UniProt O95405)
inactive: [1] -0.039 | [2] 0.01 | [3] 0.028 | [4] -0.059 | [5] -0.043 | [6] 0.034 | [7] 0.114 | [8] 0.007 | [9] -0.004 | [10] 0.09

YIPF5 isoform 3 (UniProt Q969M3)
inactive: [1] -0.02 | [2] 0.048 | [3] 0.051 | [4] 0.042 | [5] 0.037 | [6] 0.064 | [7] -0.04 | [8] -0.124 | [9] 0.057 | [10] 0.036

YWHAB (UniProt P31946)
inactive: [1] 0.007 | [2] 0.02 | [3] 0.005 | [4] -0.024 | [5] -0.01 | [6] -0.005 | [7] -0.044 | [8] 0.068 | [9] 0.001 | [10] -0.032

ZER1 (UniProt Q7Z7L7)
inactive: [1] -0.073 | [2] -0.085 | [3] 0.037 | [4] 0.125 | [5] 0.037 | [6] 0.033 | [7] -0.178 | [8] 0.067 | [9] -0.044 | [10] -0.059

YBX3 (UniProt P16989)
inactive: [1] 0.018 | [2] 0.046 | [3] -0.003 | [4] -0.015 | [5] -0.009 | [6] -0.025 | [7] -0.035 | [8] 0.01 | [9] 0.005 | [10] 0

(listing goes on)

YKT6 (UniProt O15498)
inactive: [1] 0.014 | [2] 0.014 | [3] -0.048 | [4] -0.02 | [5] 0.052 | [6] 0.005 | [7] -0.034 | [8] -0.003 | [9] 0.001 | [10] 0.032

YIPF2 (UniProt Q9BWQ6)
inactive: [1] -0.32 | [2] 0.224 | [3] 0.041

ZDHHC18 (UniProt Q9NUE0)
inactive: [1] -0.09 | [2] -0.016 | [3] 0.222 | [4] 0.029 | [5] -0.044 | [6] -0.038 | [7] 0.042 | [8] -0.131 | [9] -0.036 | [10] -0.069

YLPM1 (UniProt P49750)
inactive: [1] 0.061 | [2] -0.041 | [3] 0.01 | [4] 0.041 | [5] 0.131 | [6] 0.049 | [7] -0.09 | [8] -0.033 | [9] 0 | [10] -0.086

ZC3H7B (UniProt Q9UGR2)
inactive: [1] 0.004 | [2] -0.095 | [3] 0.006 | [4] 0.092 | [5] -0.079 | [6] 0.06 | [7] -0.008 | [8] 0.136 | [9] -0.067 | [10] -0.042

ZDHHC8 isoform 3 (UniProt Q9ULC8)
inactive: [1] -0.101

ZC3HAV1 (UniProt Q7Z2W4)
inactive: [1] 0.005 | [2] -0.078 | [3] -0.001 | [4] -0.003 | [5] -0.019 | [6] 0.022 | [7] 0.009 | [8] 0.032 | [9] 0.011 | [10] 0.008

YIPF3 (UniProt Q9GZM5)
inactive: [1] -0.023 | [2] 0.084 | [3] -0.008 | [4] 0.007 | [5] 0.021 | [6] 0.028 | [7] -0.071 | [8] 0.008 | [9] 0.007 | [10] 0.005
